Results are given in words; binding and its absence hold for the method and conditions named. Binding seen in cells or lysates may run through a third protein. Some entries that bind do so weakly or less than the wild type.
Target: Bt-LC3A-propargylamide (12) (UniProt Q9H492)
Test: pull-down; 3 μM biotin probe 11 or 12 added to HEK293T lysate (0.8% NP40, 150 mM NaCl, 50 mM Tris-HCl pH 8.0, 0.05 mM MgCl2), 1 h at 37 °C, NeutrAvidin agarose overnight at 4 °C, harsh washing 5 times with lysis buffer containing 2% SDS, Western blot with anti-GFP; only the target purified

The chains behind the UniProt entries cited, without tags or fusion partners. Where a name states a change or a piece, a line headed by the entry shows the natural chain unless it says otherwise.
UniProt Q9Y4P1: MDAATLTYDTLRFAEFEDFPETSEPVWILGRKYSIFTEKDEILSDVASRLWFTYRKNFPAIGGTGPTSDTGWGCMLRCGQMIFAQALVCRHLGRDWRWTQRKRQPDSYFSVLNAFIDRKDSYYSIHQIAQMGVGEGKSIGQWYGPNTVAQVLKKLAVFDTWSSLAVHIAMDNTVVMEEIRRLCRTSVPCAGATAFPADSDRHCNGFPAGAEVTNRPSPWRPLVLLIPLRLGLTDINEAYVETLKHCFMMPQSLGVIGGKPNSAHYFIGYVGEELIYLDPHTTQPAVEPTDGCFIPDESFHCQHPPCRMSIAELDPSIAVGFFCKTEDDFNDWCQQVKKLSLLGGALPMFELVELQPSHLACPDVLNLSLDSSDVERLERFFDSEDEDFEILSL

Substance | binding
GFP-tagged Atg4B C74A (from UniProt Q9Y4P1 1-393) (enzyme) | binds
GFP-tagged Atg4B (from UniProt Q9Y4P1 1-393) (enzyme) | binds

Source: article PMC10045837
